# Test results as given in publication PMC11186355.
# T1: SEC31A-TurboID-V5 (UniProt O94979)
# T1 sequence: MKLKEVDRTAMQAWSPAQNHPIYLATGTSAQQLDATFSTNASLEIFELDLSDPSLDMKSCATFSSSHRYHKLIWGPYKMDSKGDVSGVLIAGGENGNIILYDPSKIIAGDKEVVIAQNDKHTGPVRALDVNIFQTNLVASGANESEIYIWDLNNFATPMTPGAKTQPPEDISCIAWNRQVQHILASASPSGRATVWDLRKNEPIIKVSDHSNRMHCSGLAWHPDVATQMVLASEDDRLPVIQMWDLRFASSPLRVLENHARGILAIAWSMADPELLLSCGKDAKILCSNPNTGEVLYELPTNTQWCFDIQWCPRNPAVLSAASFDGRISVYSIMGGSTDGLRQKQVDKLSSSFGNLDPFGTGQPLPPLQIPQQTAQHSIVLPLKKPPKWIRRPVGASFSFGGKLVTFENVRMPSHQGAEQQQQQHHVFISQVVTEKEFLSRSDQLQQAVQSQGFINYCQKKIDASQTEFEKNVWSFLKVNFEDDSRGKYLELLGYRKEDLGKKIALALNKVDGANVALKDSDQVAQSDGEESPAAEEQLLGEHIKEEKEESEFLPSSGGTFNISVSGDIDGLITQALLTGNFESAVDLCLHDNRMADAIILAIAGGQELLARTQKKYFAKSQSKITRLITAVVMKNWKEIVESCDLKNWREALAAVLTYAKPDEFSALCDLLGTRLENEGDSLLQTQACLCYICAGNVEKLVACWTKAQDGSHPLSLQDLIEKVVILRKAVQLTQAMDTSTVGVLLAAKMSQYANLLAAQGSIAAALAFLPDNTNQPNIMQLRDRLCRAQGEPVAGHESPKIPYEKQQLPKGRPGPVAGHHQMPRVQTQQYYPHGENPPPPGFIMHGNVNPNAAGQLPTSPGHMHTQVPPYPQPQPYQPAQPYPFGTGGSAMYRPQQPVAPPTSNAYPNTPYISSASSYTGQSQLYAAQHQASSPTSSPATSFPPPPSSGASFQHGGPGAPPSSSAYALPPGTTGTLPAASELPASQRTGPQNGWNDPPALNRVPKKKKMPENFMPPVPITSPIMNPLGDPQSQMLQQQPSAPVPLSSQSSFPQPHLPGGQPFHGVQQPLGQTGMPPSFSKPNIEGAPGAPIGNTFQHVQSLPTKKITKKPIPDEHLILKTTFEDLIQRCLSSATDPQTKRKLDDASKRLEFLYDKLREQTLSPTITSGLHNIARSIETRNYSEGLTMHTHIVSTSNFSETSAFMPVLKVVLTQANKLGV
# Biological target: T1, SEC31A-TurboID-V5
# Experiment: proximity labelling; SEC31A-TurboID-V5 in HeLa cells, 50 μM biotin for 10 min against no biotin; streptavidin magnetic beads, label-free LC-MS/MS; FC≥4 and p<0.05, n=3
binder,measurement,value
"Syntaxin 5 (STX5) (protein, UniProt Q13190 1-355) MIPRKRYGSKNTDQGVYLGLSKTQVLSPATAGSSSSDIAPLPPPVTLVPPPPDTMSCRDRTQEFLSACKSLQTRQNGIQTNKPALRAVRQRSEFTLMAKRIGKDLSNTFAKLEKLTILAKRKSLFDDKAVEIEELTYIIKQDINSLNKQIAQLQDFVRAKGSQSGRHLQTHSNTIVVSLQSKLASMSNDFKSVLEVRTENLKQQRSRREQFSRAPVSALPLAPNHLGGGAVVLGAESHASKDVAIDMMDSRTSQQLQLIDEQDSYIQSRADTMQNIESTIVELGSIFQQLAHMVKEQEETIQRIDENVLGAQLDVEAAHSEILKYFQSVTSNRWLMVKIFLILIVFFIIFVVFLA",binding,binds

# No constants are given. Whether binding was seen depends on the method and setting. In cells and extracts the contact can be indirect. Here binding means that the protein was enriched with, or labelled near, the bait; the list need not be complete. Where a sequence is shown, tags or fusion partners need not be part of it.
